Primary screen of a compound library

From ChEMBL document CHEMBL3988442, “University of Dundee, Small-Polar-MMV Screening Library” (2021).

Values are the deposited “Percent Effect”, in %. How 0% and 100% were set is not recorded. Most values in the screen are low, and negative values occur. Compounds were drawn at random from those tested, without regard to their results.

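Assay of Toxoplasma gondii numbers, read through their beta-galactosidase reporter with a colour substrate. Tested at 50 µM. Higher reads as fewer parasites (inferred from which compounds were picked for retests). Size under these conditions: about 18,000 compounds, about 170 of them at 50% or above in at least one test.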

| structure | effect |
|---|---|
| `NC(=O)C1CCN(CC(=O)Nc2ccc(F)cc2)CC1` | -2.359 |
| `Cc1cc(C)nc(NC(=O)C2CN(C)CCO2)c1` (stereo not drawn) | 7.023 |
| `CC(=O)NC(Cc1ccccc1)CN(C)C(C)=O` (stereo not drawn) | 26.16 |
| `CC(=O)N1CCN(Cc2cccc3c2OCCO3)CC1` | -13.92 |
| `Nc1cc(-c2cccnc2)nn1CCO` | 6.942 |
| `Cc1nnsc1CN(C)C(=O)c1cccc2c1OCC2` | -22.53 |
| `CC(C)CC(C)(N)CO` (stereo not drawn) | -4.909 |
| `COc1ccccc1CC1(O)CCNCC1` | -4.99 |
| `Cn1nc(C(=O)N2CCOCC2)c(Br)c1C(F)(F)F` | 24.28 |
| `CCC(N)c1ccccc1OC` (stereo not drawn) | 9.693 |
| `N#Cc1ccsc1C(=O)N1CCN(CCO)CC1` | -2.271 |
| `CC(C)NC(=O)CCc1ccc(S(=O)(=O)N(C)C)cc1` | -4.366 |
| `O=C(CCN1CCC[C@H]1CO)N1CCc2ccccc21` | 2.534 |
| `COc1cc(CN)ccc1O` | -4.249 |
| `CN(C)C(=O)CN(c1ccc(Cl)cc1Cl)S(C)(=O)=O` | 0.8054 |
| `Cc1cccc(Cn2c(CN)n[nH]c2=O)c1` | -0.2496 |
| `CSc1cccc(NC(=O)C2CCCN2C(C)=O)c1` (stereo not drawn) | -2.986 |
| `NC(=O)C1(NC(=O)Cc2ccc3ccccc3c2)CC1` | -5.632 |
| `CC(C)NC(=O)c1ccc(N2CCCCC2=O)cc1` | 19.08 |
| `CC(C)CCOCCSc1nnnn1C` | -9.633 |
| `CCC1(CNC(=O)NCC(C)(C)S(C)(=O)=O)CCC1` | 2.694 |
| `O=C(c1cccs1)N1CCN(C(=O)C2CCCO2)CC1` (stereo not drawn) | -30.63 |
| `CC(=O)N1CCNCC12CCCCC2` | -2.206 |
| `OCCCc1cccc(NCc2csnn2)c1` | -1.917 |
| `CCc1ncc2c(n1)CNCC2` | -6.357 |
| `CNS(=O)(=O)c1cc(C(=O)Nc2cc(C)ns2)c(C)o1` | -6.995 |
| `Cn1ccc(C(=O)NCCOC2CCCCC2)cc1=O` | 1.576 |
| `CN(CCOc1ccccc1)C(=O)Nc1ccn(C)n1` | 2.072 |
| `CN1CCC[C@@H]1CCN(CCO)Cc1ccco1` | -5.223 |
| `Cc1[nH]cnc1CN1CCN(S(C)(=O)=O)CC1` | 6.777 |
| `NC(=O)NCC1CCCN1` (stereo not drawn) | 26.88 |
| `O=C1NCC(C(=O)Nc2nc(C3CC3)cs2)N1` (stereo not drawn) | -24.43 |
| `O=C(Cn1ncc2ccccc21)N[C@@H]1CCOC[C@H]1O` | 4.917 |
| `Cc1nn(-c2ccccc2)c(C)c1C(=O)N(C)C` | 4.742 |
| `CC(C)COc1cncc(NC(C)CO)n1` (stereo not drawn) | -1.06 |
| `NC(=O)CCSc1nnc(N2CCCC2)n1C1CC1` | 10.69 |
| `COc1cc(CNCCO)c(Br)cc1OCC(N)=O` | 16.82 |
| `CC(C)N1CCC(NC(=O)Nc2ccccn2)C1` (stereo not drawn) | -15.69 |
| `O=C(NCc1ccncc1)NCC1CCN(C2CC2)C1` (stereo not drawn) | -3.384 |
| `CN(C)CCNC(=O)C1Cc2ccccc2CN1` (stereo not drawn) | 1.112 |
| `O[C@H]1CCCc2c(F)cc(F)cc21` | 2.217 |
| `CCCn1cc(NC(=O)c2ccc(O)nc2)ccc1=O` | -12.29 |
| `Cc1ccc(S(=O)(=O)NC2CNC2)cc1` | -19.77 |
| `NCc1csc(-c2ccco2)n1` | 35.38 |
| `Cc1ccc(C(=O)N2CCC(F)(F)C(CO)C2)cn1` (stereo not drawn) | 0.9467 |
| `COc1cc(Br)ccc1CN` | -10.17 |
| `COc1cc(NC(=O)CCN2CCCC2)cc(OC)c1` | 14.91 |
| `O=C(COCC(F)(F)F)NCc1cn2ccccc2n1` | -18.76 |
| `CC(C)c1ccc(C(N)CNS(C)(=O)=O)cc1` (stereo not drawn) | 20.23 |
| `O=S(=O)(NCC[C@H]1CCCN1)c1cn2c(n1)CCCC2` | -5.849 |
| `O=C1OCCN1C1CCNCC1` | -7.563 |
| `CCc1nnc(CN(CC)C(=O)Nc2cnns2)o1` | -0.9427 |
| `Cc1nsc(N2CCCN(c3ccccn3)CC2)n1` | -9.058 |
| `O=C1NCCN(CCn2cncn2)C1c1cccs1` (stereo not drawn) | -2.809 |
| `O=C(Nc1ccccc1N1CCCC1)C1CCCN1` (stereo not drawn) | 4.332 |
| `CN1CCC(C2CCN(Cc3cccnc3)C2)CC1` (stereo not drawn) | -16.47 |
| `Cc1cc(C(=O)N[C@@H]2CCOC[C@H]2O)sc1C` | 10.38 |
| `Cn1ccnc1C1CCCNC1` (stereo not drawn) | 0.2412 |
| `O=C(NC1CCCC1)N1CCC2(CC1)OCCCC2O` (stereo not drawn) | -14.98 |
| `CSCCNC(=O)CN(c1ccc(C)cc1)S(C)(=O)=O` | -32.32 |
| `CCc1nnc(CNC(=O)C2CCC(=O)N(CC)C2)s1` (stereo not drawn) | 1.474 |
| `O=C(c1ccccn1)N1CCC2(CCCC2)CC1` | -0.7421 |
| `Cc1cc(C(=O)NCCCN(C)C)c2ccccc2n1` | 28.32 |
| `NCc1cccc(S(=O)(=O)C(F)(F)F)c1` | -16.96 |
| `CCS(=O)(=O)CCNC(=O)N1CCCC1` | -1.636 |
| `Cn1cc(NC(=O)NCCc2nccs2)cn1` | -7.285 |

For reference, 5 entries once more:

| structure | effect |
|---|---|
| `Cc1ccc(S(=O)(=O)NC2CNC2)cc1` | -19.77 |
| `Cc1cccc(Cn2c(CN)n[nH]c2=O)c1` | -0.2496 |
| `CC(C)c1ccc(C(N)CNS(C)(=O)=O)cc1` (stereo not drawn) | 20.23 |
| `Cc1ccc(C(=O)N2CCC(F)(F)C(CO)C2)cn1` (stereo not drawn) | 0.9467 |
| `Cn1ccnc1C1CCCNC1` (stereo not drawn) | 0.2412 |